The list shows a part of the results.
Compound: Cc1cc(ccc1-c1ccccc1)C(=O)N1CCCN(CC1)C(=O)CCl [compound 10]
Assay: probe-labelled cysteine peptide fold change vs DMSO (competition) (log2 fold change); higher = less target engagement (more negative = stronger competition)
Conditions: 10 µM; THP-1; incubation time: 4 h
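Note: competitive profiling in live THP-1 cells: cysteine peptides tagged with an iodoacetamide desthiobiotin (IA-DTB) probe, intensity after compound treatment relative to DMSO-treated cells.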

Amino acid sequences for entries named in this document (tags omitted). A change or cut given only in a name is not applied to a line headed by its entry.
UniProt Q8TEM1: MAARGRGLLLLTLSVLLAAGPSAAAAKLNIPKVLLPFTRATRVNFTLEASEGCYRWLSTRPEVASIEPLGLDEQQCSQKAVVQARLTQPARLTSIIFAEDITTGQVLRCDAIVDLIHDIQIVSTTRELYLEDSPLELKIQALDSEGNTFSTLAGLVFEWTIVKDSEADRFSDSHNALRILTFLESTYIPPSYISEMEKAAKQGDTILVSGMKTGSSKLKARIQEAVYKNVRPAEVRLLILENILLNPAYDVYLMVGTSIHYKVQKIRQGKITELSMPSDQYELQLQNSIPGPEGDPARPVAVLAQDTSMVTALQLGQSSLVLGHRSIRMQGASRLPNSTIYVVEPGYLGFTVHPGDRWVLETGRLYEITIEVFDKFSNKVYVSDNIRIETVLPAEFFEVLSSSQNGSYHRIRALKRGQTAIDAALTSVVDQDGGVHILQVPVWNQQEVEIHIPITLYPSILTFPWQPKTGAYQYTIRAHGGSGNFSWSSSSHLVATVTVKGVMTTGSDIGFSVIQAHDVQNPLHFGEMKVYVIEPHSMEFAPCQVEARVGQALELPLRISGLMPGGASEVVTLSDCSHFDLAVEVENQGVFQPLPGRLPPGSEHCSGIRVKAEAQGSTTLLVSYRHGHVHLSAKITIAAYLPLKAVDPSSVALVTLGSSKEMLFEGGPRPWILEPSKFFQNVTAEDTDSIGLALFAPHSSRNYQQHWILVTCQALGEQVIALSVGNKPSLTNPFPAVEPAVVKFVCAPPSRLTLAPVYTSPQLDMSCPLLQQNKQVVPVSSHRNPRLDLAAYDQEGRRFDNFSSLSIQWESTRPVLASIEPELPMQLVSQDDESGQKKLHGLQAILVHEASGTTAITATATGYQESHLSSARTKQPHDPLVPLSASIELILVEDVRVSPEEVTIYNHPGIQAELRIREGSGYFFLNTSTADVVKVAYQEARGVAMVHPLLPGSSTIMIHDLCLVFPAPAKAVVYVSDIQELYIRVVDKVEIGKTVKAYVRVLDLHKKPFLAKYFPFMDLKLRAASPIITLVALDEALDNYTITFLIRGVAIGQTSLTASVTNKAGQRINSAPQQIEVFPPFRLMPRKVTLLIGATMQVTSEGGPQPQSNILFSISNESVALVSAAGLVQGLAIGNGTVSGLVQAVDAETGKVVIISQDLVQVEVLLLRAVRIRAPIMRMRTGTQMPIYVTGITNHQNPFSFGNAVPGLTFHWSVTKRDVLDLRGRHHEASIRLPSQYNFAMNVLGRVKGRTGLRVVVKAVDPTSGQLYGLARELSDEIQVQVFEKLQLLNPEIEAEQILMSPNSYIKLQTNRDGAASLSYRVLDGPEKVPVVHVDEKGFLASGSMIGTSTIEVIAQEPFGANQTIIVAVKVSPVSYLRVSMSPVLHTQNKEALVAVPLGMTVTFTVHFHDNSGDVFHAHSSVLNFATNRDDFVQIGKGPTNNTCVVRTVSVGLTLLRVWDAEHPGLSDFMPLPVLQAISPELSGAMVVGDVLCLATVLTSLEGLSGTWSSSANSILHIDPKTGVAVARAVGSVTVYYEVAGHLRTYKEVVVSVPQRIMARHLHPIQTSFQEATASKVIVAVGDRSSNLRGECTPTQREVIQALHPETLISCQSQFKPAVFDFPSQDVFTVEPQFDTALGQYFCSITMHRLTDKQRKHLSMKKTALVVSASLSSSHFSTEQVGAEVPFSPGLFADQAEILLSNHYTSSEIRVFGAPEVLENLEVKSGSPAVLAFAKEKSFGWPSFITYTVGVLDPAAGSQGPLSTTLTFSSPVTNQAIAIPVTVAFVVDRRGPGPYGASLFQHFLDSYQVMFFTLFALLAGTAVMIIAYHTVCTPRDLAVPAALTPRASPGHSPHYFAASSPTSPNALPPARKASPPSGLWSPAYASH
UniProt Q9UBU9: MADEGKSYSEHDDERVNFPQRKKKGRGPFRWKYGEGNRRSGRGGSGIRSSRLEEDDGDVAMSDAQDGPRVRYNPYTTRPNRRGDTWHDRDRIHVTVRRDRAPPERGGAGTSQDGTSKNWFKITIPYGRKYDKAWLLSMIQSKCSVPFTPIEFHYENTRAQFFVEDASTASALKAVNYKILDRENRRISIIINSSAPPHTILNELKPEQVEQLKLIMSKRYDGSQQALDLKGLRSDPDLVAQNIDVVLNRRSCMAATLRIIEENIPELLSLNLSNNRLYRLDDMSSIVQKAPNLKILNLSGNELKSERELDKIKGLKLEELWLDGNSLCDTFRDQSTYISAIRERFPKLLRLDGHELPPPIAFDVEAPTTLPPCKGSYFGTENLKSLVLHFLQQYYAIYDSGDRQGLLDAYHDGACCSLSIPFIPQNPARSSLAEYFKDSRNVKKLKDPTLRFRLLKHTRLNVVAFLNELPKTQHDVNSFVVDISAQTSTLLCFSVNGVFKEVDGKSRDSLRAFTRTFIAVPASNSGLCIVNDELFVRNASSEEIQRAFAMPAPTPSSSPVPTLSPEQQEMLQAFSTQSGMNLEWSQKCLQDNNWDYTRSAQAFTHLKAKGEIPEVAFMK
UniProt P53384: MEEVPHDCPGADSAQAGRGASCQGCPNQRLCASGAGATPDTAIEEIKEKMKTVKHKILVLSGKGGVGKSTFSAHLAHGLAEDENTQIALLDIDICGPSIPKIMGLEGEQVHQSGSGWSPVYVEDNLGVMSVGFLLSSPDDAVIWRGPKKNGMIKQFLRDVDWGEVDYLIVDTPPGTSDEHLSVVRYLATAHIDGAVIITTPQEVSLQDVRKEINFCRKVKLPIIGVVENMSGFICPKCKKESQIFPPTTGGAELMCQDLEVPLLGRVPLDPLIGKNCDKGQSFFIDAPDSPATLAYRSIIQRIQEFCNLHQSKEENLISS
UniProt Q9BW91: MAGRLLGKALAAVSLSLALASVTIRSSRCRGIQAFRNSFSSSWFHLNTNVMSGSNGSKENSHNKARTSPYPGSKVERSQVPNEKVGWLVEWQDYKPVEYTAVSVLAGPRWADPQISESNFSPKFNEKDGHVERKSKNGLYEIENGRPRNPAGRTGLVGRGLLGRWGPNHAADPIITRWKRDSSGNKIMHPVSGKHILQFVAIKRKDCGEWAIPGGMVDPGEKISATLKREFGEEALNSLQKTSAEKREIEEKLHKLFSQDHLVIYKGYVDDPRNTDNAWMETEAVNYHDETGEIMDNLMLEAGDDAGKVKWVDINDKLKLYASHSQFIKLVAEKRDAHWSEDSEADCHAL
UniProt P11926: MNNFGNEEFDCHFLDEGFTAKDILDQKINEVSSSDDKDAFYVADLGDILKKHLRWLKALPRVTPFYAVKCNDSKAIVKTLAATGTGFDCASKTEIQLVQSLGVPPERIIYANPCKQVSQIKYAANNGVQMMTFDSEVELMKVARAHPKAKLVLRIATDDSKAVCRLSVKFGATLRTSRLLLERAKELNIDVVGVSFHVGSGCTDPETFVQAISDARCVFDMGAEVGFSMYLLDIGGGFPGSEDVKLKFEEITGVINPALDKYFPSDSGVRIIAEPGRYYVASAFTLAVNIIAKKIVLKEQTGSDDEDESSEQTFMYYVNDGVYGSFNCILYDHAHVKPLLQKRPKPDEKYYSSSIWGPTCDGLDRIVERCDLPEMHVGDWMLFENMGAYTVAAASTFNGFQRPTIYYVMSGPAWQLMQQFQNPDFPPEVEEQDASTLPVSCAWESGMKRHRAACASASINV
UniProt Q9Y6K5: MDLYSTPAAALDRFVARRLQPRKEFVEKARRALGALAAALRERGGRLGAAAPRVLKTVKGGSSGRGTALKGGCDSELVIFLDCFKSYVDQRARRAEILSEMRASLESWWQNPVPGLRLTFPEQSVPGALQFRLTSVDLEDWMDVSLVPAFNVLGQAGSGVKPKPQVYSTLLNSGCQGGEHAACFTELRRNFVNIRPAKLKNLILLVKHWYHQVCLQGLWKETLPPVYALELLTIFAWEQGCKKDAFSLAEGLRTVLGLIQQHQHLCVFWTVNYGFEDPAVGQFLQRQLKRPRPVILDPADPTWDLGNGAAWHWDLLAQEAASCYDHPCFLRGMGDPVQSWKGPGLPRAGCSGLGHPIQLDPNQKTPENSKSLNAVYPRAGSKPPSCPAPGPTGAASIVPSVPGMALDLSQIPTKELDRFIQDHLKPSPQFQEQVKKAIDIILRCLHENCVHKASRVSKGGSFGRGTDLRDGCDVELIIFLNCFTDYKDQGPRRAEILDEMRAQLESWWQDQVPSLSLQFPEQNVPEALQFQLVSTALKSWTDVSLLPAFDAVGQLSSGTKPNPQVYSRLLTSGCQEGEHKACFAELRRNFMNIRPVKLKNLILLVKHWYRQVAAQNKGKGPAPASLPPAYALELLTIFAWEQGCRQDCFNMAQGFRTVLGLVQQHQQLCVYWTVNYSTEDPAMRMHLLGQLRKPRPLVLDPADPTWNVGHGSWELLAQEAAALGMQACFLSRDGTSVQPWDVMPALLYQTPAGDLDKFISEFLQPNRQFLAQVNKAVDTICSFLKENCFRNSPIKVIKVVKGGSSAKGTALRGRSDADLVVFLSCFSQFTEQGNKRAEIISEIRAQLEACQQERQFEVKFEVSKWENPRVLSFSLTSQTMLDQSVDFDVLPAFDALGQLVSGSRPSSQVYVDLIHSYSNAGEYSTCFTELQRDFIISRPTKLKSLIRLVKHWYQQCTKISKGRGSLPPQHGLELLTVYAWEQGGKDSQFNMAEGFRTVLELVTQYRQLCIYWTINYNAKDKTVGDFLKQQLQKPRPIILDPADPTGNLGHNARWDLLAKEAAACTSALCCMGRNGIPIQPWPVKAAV
UniProt Q5SRE5: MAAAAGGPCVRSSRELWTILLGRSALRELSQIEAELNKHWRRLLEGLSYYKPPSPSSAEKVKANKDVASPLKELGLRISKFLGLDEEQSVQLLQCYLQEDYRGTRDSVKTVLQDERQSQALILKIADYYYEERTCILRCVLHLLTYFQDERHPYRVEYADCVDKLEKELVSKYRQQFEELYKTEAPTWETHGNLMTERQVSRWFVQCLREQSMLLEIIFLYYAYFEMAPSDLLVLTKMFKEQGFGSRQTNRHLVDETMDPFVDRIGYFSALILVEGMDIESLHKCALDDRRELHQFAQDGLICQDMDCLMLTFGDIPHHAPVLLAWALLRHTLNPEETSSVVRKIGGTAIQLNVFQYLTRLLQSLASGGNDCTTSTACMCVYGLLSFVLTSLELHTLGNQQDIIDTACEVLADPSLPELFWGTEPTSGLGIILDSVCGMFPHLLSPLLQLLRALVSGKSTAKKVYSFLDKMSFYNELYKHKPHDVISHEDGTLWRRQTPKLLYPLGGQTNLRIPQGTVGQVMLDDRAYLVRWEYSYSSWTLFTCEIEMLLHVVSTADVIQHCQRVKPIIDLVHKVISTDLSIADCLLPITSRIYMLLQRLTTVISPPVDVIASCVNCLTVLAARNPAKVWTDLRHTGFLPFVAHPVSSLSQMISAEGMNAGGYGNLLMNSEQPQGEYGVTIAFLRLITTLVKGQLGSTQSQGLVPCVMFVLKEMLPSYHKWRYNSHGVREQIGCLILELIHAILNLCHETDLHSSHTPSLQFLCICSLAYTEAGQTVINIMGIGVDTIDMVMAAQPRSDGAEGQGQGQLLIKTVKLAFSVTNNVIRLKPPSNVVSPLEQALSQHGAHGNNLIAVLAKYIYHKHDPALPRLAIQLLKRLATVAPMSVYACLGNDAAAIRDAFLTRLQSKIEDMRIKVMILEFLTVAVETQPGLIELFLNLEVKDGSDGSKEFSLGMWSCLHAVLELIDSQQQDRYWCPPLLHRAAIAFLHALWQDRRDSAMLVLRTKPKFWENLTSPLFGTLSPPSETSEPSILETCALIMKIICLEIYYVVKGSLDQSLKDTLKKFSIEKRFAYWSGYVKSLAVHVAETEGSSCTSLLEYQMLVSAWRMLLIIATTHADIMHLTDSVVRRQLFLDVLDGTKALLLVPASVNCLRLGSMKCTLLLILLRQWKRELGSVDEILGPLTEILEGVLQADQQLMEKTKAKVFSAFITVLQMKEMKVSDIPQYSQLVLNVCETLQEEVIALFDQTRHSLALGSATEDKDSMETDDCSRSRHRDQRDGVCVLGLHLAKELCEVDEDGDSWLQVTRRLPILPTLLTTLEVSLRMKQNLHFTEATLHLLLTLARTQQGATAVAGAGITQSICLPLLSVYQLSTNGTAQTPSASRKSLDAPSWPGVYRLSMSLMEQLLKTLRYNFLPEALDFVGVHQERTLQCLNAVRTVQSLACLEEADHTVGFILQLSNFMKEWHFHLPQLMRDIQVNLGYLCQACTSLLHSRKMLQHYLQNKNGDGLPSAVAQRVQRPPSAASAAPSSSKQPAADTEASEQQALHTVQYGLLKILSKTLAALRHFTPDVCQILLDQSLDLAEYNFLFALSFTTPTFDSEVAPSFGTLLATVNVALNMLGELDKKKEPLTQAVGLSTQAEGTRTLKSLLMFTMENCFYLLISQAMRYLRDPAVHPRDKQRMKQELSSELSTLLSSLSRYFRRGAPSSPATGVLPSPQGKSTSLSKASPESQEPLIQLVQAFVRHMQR

Target	probe-labelled cysteine peptide fold change
OGDH_Q02218_283_FGLEGCEVLIPALK (UniProt Q02218)	0.0342
NUP153_P49790_148_SHLNFSMLESPALHCQPSTSSAFPIGSSGFSLVK (UniProt P49790)	0.077
NUP210_Q8TEM1_109_CDAIVDLIHDIQIVSTTR (UniProt Q8TEM1)	0.163
NUDT18_Q6ZVK8_185+189_HPLILPQELPCDLVCQR (UniProt Q6ZVK8)	0.126
NUP93_Q8N1F7_328_CGDLLAASQVVNR (UniProt Q8N1F7)	-0.0388
NUP85_Q9BW27_51_SEMVPSCPFIYIIR (UniProt Q9BW27)	0.108
NUFIP1_Q9UHK0_199_CPELDCSFTAHEK (UniProt Q9UHK0)	-0.184
OCRL_Q01968_611_LNDSQYCKPWLR (UniProt Q01968)	-0.146
NUP153_P49790_860_FKKPEGSWDCELCLVQNK (UniProt P49790)	-0.0226
NUP155_O75694_667_HNGICIYFSR (UniProt O75694)	-0.0934
OCIAD2_Q56VL3_134_HCLLTCEECK (UniProt Q56VL3)	0.0848
NUDCD3_Q8IVD9_260_CVLVNLSK (UniProt Q8IVD9)	0.148
NUP205_Q92621_237_QSLAESLFAWACQSPLGKEDTLLLIGHLER (UniProt Q92621)	0.216
NXF1_Q9UBU9_252_SCMAATLR (UniProt Q9UBU9)	-0.058
NUBP1_P53384_25_GASCQGCPNQR (UniProt P53384)	-0.166
NUP214_P35658_1003_TSCKDDEAVVQAPR (UniProt P35658)	-0.105
NUP133_Q8WUM0_700+702_EVSQVDTICECLLEHEEQVLR (UniProt Q8WUM0)	0.452
ODF2_Q5BJF6_364_LCMQIK (UniProt Q5BJF6)	0.134
OCIAD1_Q9NX40_38_VFAECNDESFWFR (UniProt Q9NX40)	0.0969
NUP133_Q8WUM0_641_LLLCEHAEK (UniProt Q8WUM0)	-0.158

Target	probe-labelled cysteine peptide fold change
NUFIP2_Q7Z417_234_GCENLNIVQDK (UniProt Q7Z417)	-0.0267
NUDT9_Q9BW91_347_RDAHWSEDSEADCHAL (UniProt Q9BW91)	0.0175
NUP88_Q99567_608_QLEDLSYCR (UniProt Q99567)	-0.218
NUP210_Q8TEM1_746_FVCAPPSR (UniProt Q8TEM1)	0.133
NUMA1_Q14980_1930_VCPPHLK (UniProt Q14980)	-0.216
NUP205_Q92621_698_CEEYPLTR (UniProt Q92621)	0.0608
OARD1_Q9Y530_33+38_TDSLAHCISEDCR (UniProt Q9Y530)	-0.118
NVL_O15381_803_EASICALR (UniProt O15381)	0.107
ODF2_Q5BJF6_327_EVEELLQEIQCEK (UniProt Q5BJF6)	-0.0977
NUP160_Q12769_931_ALECFCQAASEVGKEEFLDR (UniProt Q12769)	0.0971
NUP205_Q92621_1032_TCLHAILNILEK (UniProt Q92621)	0.046
ODC1_P11926_114_IIYANPCK (UniProt P11926)	-0.0815
NUDT16_Q96DE0_23_HACHALLYAPDPGMLFGR (UniProt Q96DE0)	0.126
OAS3_Q9Y6K5_850_AQLEACQQER (UniProt Q9Y6K5)	-0.0629
NUP188_Q5SRE5_95_FLGLDEEQSVQLLQCYLQEDYR (UniProt Q5SRE5)	0.0307
OGA_O60502_166_RKLDQVSQFGCR (UniProt O60502)	-0.11
NUDT14_O95848_127_EAWEECGYHLAPSDLRR (UniProt O95848)	-0.121
NUP98_P52948_1234_HSTVHVDELCPLIVPNLGVAVIHDYADWVK (UniProt P52948)	-0.0516
NUMA1_Q14980_160_APVPSTCSSTFPEELSPPSHQAK (UniProt Q14980)	-0.186
NUP214_P35658_298_HPEIFVNFMEPCYGSCTER (UniProt P35658)	0.163

Same assay, conditions: 50 µM; THP-1; incubation time: 4 h

Target	probe-labelled cysteine peptide fold change
OGDH_Q02218_283_FGLEGCEVLIPALK (UniProt Q02218)	0.0883
NUP153_P49790_148_SHLNFSMLESPALHCQPSTSSAFPIGSSGFSLVK (UniProt P49790)	0.0348
NUP210_Q8TEM1_109_CDAIVDLIHDIQIVSTTR (UniProt Q8TEM1)	0.398
NUDT18_Q6ZVK8_185+189_HPLILPQELPCDLVCQR (UniProt Q6ZVK8)	-0.127
NUP93_Q8N1F7_328_CGDLLAASQVVNR (UniProt Q8N1F7)	0.214
NUP85_Q9BW27_51_SEMVPSCPFIYIIR (UniProt Q9BW27)	-0.0898
NUFIP1_Q9UHK0_199_CPELDCSFTAHEK (UniProt Q9UHK0)	0.281
OCRL_Q01968_611_LNDSQYCKPWLR (UniProt Q01968)	-0.914
NUP153_P49790_860_FKKPEGSWDCELCLVQNK (UniProt P49790)	-0.228
NUP155_O75694_667_HNGICIYFSR (UniProt O75694)	0.0846
OCIAD2_Q56VL3_134_HCLLTCEECK (UniProt Q56VL3)	-0.201
NUDCD3_Q8IVD9_260_CVLVNLSK (UniProt Q8IVD9)	0.155
NUP205_Q92621_237_QSLAESLFAWACQSPLGKEDTLLLIGHLER (UniProt Q92621)	0.344
NXF1_Q9UBU9_252_SCMAATLR (UniProt Q9UBU9)	-0.0281
NUBP1_P53384_25_GASCQGCPNQR (UniProt P53384)	-0.851
NUP214_P35658_1003_TSCKDDEAVVQAPR (UniProt P35658)	-0.359
NUP133_Q8WUM0_700+702_EVSQVDTICECLLEHEEQVLR (UniProt Q8WUM0)	-0.273
ODF2_Q5BJF6_364_LCMQIK (UniProt Q5BJF6)	-0.067
OCIAD1_Q9NX40_38_VFAECNDESFWFR (UniProt Q9NX40)	0.145
NUP133_Q8WUM0_641_LLLCEHAEK (UniProt Q8WUM0)	-0.252

Target	probe-labelled cysteine peptide fold change
NUFIP2_Q7Z417_234_GCENLNIVQDK (UniProt Q7Z417)	-0.0796
NUDT9_Q9BW91_347_RDAHWSEDSEADCHAL (UniProt Q9BW91)	0.173
NUP88_Q99567_608_QLEDLSYCR (UniProt Q99567)	0.0469
NUP210_Q8TEM1_746_FVCAPPSR (UniProt Q8TEM1)	0.305
NUMA1_Q14980_1930_VCPPHLK (UniProt Q14980)	0.0786
NUP205_Q92621_698_CEEYPLTR (UniProt Q92621)	-0.00172
OARD1_Q9Y530_33+38_TDSLAHCISEDCR (UniProt Q9Y530)	-0.279
NVL_O15381_803_EASICALR (UniProt O15381)	-0.0294
ODF2_Q5BJF6_327_EVEELLQEIQCEK (UniProt Q5BJF6)	0.331
NUP160_Q12769_931_ALECFCQAASEVGKEEFLDR (UniProt Q12769)	0.0576
NUP205_Q92621_1032_TCLHAILNILEK (UniProt Q92621)	-0.161
ODC1_P11926_114_IIYANPCK (UniProt P11926)	-0.145
NUDT16_Q96DE0_23_HACHALLYAPDPGMLFGR (UniProt Q96DE0)	0.615
OAS3_Q9Y6K5_850_AQLEACQQER (UniProt Q9Y6K5)	0.221
NUP188_Q5SRE5_95_FLGLDEEQSVQLLQCYLQEDYR (UniProt Q5SRE5)	0.285
OGA_O60502_166_RKLDQVSQFGCR (UniProt O60502)	-0.0253
NUDT14_O95848_127_EAWEECGYHLAPSDLRR (UniProt O95848)	-0.154
NUP98_P52948_1234_HSTVHVDELCPLIVPNLGVAVIHDYADWVK (UniProt P52948)	0.146
NUMA1_Q14980_160_APVPSTCSSTFPEELSPPSHQAK (UniProt Q14980)	-0.219
NUP214_P35658_298_HPEIFVNFMEPCYGSCTER (UniProt P35658)	0.251
